The values below come from the supplement of paper PMC6411743.

Amino acid sequences for entries named in this document (tags omitted). A change or cut given only in a name is not applied to a line headed by its entry.
UniProt P82970: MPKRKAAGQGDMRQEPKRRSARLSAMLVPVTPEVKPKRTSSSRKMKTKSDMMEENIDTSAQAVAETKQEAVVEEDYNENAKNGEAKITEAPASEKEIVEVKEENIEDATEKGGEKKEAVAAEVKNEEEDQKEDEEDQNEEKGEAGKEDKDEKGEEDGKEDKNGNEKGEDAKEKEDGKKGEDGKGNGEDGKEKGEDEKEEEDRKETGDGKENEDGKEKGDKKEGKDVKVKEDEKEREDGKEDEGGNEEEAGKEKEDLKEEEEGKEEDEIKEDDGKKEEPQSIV
UniProt P61225: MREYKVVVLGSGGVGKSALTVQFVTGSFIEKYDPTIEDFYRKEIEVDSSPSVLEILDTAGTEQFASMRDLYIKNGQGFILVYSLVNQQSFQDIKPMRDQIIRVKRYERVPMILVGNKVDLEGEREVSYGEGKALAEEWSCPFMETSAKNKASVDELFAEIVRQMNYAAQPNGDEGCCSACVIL
UniProt P56181: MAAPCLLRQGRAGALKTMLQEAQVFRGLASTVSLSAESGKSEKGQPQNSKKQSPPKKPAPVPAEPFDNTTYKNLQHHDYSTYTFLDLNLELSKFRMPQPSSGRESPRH
UniProt Q08211, whole entry: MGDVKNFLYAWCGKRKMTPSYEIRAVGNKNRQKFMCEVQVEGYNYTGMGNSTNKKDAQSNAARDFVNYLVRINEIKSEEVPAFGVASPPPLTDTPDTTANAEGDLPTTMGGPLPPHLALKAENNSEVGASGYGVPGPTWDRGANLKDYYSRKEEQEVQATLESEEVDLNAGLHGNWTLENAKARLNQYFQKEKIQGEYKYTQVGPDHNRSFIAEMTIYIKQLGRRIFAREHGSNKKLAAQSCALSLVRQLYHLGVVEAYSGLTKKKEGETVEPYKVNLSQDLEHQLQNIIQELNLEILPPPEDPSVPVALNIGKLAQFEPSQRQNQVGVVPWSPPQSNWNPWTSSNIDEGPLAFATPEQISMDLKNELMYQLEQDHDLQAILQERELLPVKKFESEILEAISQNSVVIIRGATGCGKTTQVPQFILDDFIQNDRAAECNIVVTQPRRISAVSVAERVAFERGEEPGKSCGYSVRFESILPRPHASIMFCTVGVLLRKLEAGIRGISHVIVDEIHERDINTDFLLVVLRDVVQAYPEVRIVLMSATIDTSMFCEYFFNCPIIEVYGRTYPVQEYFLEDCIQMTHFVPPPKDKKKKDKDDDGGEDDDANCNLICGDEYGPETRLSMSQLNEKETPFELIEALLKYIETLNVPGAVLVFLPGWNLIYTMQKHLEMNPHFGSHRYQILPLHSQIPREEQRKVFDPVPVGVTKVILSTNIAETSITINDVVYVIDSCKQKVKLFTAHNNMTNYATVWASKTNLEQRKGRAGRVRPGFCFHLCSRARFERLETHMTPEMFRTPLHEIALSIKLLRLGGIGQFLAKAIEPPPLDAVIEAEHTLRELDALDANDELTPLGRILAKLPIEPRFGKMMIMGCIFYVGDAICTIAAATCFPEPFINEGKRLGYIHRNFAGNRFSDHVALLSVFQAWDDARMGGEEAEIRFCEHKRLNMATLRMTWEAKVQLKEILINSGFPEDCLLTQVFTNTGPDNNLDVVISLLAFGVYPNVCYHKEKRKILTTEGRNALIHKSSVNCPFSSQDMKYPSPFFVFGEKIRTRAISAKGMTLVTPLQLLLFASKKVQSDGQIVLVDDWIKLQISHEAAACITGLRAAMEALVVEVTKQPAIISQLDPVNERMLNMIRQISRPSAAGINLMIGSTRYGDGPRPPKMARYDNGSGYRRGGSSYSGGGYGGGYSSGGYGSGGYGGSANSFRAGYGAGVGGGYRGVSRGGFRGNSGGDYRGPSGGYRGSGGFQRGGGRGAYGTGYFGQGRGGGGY
UniProt P67809, whole entry: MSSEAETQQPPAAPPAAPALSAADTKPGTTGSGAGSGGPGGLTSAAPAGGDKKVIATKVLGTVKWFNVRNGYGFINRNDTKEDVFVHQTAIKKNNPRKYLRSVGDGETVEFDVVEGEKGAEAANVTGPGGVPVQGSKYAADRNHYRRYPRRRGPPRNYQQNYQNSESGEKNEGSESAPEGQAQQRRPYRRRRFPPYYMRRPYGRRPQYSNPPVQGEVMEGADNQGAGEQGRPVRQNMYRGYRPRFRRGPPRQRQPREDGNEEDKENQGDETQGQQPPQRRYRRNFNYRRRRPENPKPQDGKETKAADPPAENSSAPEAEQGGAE
UniProt P85037: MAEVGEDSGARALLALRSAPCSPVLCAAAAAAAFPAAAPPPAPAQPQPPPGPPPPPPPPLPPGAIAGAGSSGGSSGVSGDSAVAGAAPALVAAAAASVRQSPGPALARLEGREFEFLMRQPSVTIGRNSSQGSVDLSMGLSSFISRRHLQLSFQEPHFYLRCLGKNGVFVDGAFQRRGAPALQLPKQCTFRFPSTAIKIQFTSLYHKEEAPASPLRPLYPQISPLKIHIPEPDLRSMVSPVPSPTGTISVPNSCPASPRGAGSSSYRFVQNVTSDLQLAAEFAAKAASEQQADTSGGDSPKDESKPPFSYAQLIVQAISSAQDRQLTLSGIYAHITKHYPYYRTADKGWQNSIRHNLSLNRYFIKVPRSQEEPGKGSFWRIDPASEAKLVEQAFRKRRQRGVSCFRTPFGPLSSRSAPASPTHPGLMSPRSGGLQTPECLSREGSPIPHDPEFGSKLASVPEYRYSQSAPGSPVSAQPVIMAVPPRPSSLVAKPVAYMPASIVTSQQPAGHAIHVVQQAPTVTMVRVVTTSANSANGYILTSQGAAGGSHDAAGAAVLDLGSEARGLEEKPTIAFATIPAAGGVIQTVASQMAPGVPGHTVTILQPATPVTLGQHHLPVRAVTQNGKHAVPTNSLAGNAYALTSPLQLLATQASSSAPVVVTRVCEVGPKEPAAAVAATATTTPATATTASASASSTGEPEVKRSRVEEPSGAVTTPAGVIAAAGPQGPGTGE
UniProt P78318: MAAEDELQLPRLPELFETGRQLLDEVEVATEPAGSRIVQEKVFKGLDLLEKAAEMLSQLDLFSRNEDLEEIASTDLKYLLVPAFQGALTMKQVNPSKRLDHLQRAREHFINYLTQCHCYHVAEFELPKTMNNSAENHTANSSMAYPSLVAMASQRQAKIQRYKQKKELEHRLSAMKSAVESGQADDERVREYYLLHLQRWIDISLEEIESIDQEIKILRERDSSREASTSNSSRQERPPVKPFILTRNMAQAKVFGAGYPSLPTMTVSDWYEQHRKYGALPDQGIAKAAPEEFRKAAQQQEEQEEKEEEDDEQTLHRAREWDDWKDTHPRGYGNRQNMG
UniProt P61018: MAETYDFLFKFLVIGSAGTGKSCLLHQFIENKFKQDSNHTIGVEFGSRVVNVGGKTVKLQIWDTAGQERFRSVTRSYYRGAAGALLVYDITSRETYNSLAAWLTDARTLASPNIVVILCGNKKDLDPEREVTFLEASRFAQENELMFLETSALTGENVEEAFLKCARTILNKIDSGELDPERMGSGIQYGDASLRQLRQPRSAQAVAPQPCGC
UniProt Q08170: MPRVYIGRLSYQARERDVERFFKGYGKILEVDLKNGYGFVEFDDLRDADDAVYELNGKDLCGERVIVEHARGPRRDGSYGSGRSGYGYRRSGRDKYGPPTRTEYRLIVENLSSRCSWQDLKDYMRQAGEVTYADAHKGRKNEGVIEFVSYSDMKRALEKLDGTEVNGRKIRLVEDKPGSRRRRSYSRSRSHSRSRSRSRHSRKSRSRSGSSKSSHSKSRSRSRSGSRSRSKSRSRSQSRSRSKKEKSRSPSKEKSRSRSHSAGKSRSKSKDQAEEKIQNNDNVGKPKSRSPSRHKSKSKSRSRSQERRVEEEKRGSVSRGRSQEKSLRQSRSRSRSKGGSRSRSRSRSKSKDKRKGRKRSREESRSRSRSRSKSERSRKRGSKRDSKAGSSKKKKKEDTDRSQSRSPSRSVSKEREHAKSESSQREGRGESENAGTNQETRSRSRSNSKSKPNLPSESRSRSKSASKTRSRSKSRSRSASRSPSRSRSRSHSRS
UniProt P61106, whole entry, looked up: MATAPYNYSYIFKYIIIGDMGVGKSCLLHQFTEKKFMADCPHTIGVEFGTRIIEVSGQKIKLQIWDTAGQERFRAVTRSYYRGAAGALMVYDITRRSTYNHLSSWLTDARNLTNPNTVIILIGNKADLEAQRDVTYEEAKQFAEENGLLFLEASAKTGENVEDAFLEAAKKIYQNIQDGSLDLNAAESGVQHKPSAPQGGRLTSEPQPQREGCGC
UniProt P84022, whole entry, looked up: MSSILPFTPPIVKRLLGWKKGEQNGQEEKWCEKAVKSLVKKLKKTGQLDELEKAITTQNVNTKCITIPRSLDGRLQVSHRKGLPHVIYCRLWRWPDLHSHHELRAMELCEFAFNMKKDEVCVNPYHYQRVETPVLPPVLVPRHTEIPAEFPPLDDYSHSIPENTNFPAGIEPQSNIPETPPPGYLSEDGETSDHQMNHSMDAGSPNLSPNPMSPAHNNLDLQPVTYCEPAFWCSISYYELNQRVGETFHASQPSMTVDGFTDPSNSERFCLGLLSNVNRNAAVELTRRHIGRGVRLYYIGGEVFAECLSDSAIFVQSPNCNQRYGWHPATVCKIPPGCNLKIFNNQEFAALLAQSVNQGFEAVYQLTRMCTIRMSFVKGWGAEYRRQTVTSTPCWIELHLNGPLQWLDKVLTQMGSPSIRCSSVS
UniProt Q01459: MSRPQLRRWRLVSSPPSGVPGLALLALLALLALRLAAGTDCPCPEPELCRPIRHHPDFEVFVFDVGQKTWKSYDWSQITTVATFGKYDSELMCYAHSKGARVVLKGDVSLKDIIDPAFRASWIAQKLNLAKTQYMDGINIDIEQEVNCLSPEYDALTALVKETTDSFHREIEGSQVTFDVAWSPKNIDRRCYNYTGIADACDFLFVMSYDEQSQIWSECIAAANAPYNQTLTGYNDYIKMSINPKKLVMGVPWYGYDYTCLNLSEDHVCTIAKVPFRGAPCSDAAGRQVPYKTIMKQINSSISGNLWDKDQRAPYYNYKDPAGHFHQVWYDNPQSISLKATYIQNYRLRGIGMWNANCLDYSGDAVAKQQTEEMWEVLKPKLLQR
UniProt Q01968: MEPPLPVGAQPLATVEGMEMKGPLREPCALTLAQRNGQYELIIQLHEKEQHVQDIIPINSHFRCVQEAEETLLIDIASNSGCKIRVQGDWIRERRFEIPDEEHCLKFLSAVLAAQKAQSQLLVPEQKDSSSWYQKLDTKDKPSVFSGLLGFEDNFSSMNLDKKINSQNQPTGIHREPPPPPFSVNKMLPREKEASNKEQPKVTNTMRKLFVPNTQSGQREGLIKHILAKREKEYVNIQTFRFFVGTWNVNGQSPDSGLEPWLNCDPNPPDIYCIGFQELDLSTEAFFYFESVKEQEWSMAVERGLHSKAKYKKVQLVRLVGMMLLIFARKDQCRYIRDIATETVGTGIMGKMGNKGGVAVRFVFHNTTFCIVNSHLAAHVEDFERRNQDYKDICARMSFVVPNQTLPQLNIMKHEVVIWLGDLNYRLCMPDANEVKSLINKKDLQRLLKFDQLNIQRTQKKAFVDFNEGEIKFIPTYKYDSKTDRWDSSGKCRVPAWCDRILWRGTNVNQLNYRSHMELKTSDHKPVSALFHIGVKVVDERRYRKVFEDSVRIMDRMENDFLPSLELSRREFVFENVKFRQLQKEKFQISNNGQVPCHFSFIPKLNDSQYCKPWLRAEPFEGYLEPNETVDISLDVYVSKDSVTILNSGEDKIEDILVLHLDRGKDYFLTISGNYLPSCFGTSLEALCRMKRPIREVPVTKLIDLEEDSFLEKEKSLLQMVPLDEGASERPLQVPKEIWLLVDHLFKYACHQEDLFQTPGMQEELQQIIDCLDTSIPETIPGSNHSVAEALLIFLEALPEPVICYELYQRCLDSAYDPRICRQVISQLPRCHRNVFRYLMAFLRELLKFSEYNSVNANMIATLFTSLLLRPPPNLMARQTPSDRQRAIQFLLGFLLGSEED
UniProt Q04760: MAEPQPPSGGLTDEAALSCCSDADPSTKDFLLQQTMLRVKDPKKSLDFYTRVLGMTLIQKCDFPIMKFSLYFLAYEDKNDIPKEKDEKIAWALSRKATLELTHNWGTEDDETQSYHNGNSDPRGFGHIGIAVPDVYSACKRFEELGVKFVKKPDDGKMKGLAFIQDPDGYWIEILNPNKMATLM
UniProt P60228, whole entry: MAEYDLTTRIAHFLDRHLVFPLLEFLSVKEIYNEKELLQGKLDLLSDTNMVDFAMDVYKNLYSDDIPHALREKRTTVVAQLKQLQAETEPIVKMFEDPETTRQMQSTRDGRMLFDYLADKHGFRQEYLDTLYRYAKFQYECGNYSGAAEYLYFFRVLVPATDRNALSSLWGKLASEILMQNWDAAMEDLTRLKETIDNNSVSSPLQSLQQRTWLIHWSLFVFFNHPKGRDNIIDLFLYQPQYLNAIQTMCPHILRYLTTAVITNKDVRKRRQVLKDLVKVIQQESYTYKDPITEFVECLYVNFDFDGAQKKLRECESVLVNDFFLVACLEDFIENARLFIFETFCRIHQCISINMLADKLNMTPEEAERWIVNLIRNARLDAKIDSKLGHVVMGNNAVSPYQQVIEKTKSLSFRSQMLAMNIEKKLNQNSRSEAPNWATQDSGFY

± gives the standard deviation of the averaged measurements. Only a part is listed here, and it is no random draw. Most values lie at the level of the controls, where differences are scatter.

Compound in one test: Nc1ncnc2c1ncn2[C@@H]1O[C@H](COP(=O)(O)OP(=O)(O)NP(=O)(O)O)[C@@H](O)[C@H]1O [adenylyl imidodiphosphate]
The test is described as follows: NP40-soluble protein abundance relative to vehicle (solubility fold change) (ratio); higher = more soluble protein in presence of AMP-PNP. The note with it: concentration: 0.1mM. The essentials: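 Eight concentrations, 0.1 to 10 mM, were tested on Jurkat crude lysate for 10 min at room temperature and then 3 min at 37 °C, in three independent experiments. The lysate was solubilised with 0.8% NP40 and benzonase, ultracentrifuged, and the supernatant TMT-labelled for LC-MS/MS. Each value is the fold change against the detergent-processed vehicle in its own replicate, from vsn-normalised intensities.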
For UniProt P82970, the NP40-soluble protein abundance is 0.893 ± 0.016.
On the same count and under the same terms, the same measure for UniProt P61225: 1.01 ± 0.12.
Same read-out and setting: next, UniProt P56181 and related entries: 0.973 ± 0.021; UniProt P61026: 0.948 ± 0.047.
For the target UniProt P62140, the NP40-soluble protein abundance came out at 1.06 ± 0.017.
Still for that read-out and setting: next, DHX9 (UniProt Q08211): 1.11 ± 0.02.
Still for that read-out and setting: the same measure for YBX1 (UniProt P67809): 0.976 ± 0.11; for UniProt P61964: 1.005 ± 0.0047; for UniProt P61163: 1.04 ± 0.013.
UniProt P60900 and related entries: the NP40-soluble protein abundance came to 0.976 ± 0.017.
On the same count and under the same terms, the same measure for FOXK1 (UniProt P85037): 0.991 ± 0.035; for UniProt Q01432-5: 0.987 ± 0.012.
Still for that read-out and setting: next, EXOSC10 (UniProt Q01780): 1 ± 0.014; IGBP1 (UniProt P78318): 0.996 ± 0.049.
Still for that read-out and setting: next, UniProt Q06609 and related entries: 1.019 ± 0.0072; STX17 (UniProt P56962): 1.01 ± 0.023.
Regarding UniProt P62829, the NP40-soluble protein abundance was determined as 1.01 ± 0.017.
With RAB4B (UniProt P61018), the NP40-soluble protein abundance turned out to be 0.982 ± 0.023.
Still for that read-out and setting: next, UniProt Q08170: 1.03 ± 0.043; UniProt P98095 and related entries: 0.996 ± 0.022.
The same measure, in the same setting: the same measure for UniProt P61106: 1.01 ± 0.067; for UniProt P57081 and related entries: 0.964 ± 0.029; for UniProt P84022: 1 ± 0.016.
On the same count and under the same terms, the same measure for UniProt P61081: 0.981 ± 0.011.
With CTBS (UniProt Q01459), the NP40-soluble protein abundance came out at 0.989 ± 0.012.
With TFAP4 (UniProt Q01664), the NP40-soluble protein abundance was 0.99 ± 0.038.
As for UniProt Q01968 and related entries, the NP40-soluble protein abundance was 1.01 ± 0.04.
The same measure, in the same setting: the same measure for “UniProt Q02447-3|H0Y6K5 and related entries”: 1.01 ± 0.079; for UniProt Q04760 and related entries: 0.992 ± 0.056.
ITGA1 (UniProt P56199): the NP40-soluble protein abundance turned out to be 1.01 ± 0.023.
Same read-out and setting: next, UniProt P62750: 1.04 ± 0.016; PPP1CA (UniProt P62136): 1.017 ± 0.0043.
Regarding UniProt P62875, the NP40-soluble protein abundance is 1.02 ± 0.025.
Same read-out and setting: next, UniProt P60228: 1.05 ± 0.028; UniProt P98155 and related entries: 1.16 ± 0.11.
The same measure, in the same setting: next, NOTCH2 (UniProt Q04721): 0.97 ± 0.028; RPS27A (UniProt P62979): 1 ± 0.065.

Still in this test, the particulars now being: concentration: 0.5mM.
Regarding UniProt P82970, the NP40-soluble protein abundance came out at 0.951 ± 0.06.
In the case of UniProt P61225, the NP40-soluble protein abundance amounted to 0.974 ± 0.16.
Take UniProt P56181 and related entries: the NP40-soluble protein abundance is 1.02 ± 0.081.
As for UniProt P61026, the NP40-soluble protein abundance came out at 0.988 ± 0.017.
Still for that read-out and setting: next, UniProt P62140: 1.02 ± 0.043; DHX9 (UniProt Q08211): 1.19 ± 0.093.
Same read-out and setting: next, YBX1 (UniProt P67809): 1.08 ± 0.29; UniProt P61964: 1.019 ± 0.0075.
Same read-out and setting: the same measure for UniProt P61163: 1 ± 0.083; for UniProt P60900 and related entries: 0.977 ± 0.039.
For the target FOXK1 (UniProt P85037), the NP40-soluble protein abundance is 0.999 ± 0.07.
On to UniProt Q01432-5, for which the NP40-soluble protein abundance stood at 1.02 ± 0.041.
As for EXOSC10 (UniProt Q01780), the NP40-soluble protein abundance came to 1.037 ± 0.0071.
Same read-out and setting: the same measure for IGBP1 (UniProt P78318): 0.991 ± 0.029; for UniProt Q06609 and related entries: 1.01 ± 0.029.
Same read-out and setting: the same measure for STX17 (UniProt P56962): 0.997 ± 0.052.
On the same count and under the same terms, next, UniProt P62829: 1.008 ± 0.008; RAB4B (UniProt P61018): 0.984 ± 0.047.
Regarding UniProt Q08170, the NP40-soluble protein abundance stood at 1.01 ± 0.031.
Same read-out and setting: the same measure for UniProt P98095 and related entries: 1.02 ± 0.045.
Still for that read-out and setting: next, UniProt P61106: 1.05 ± 0.031; UniProt P57081 and related entries: 0.9879 ± 0.0073.
Same read-out and setting: next, UniProt P84022: 1.03 ± 0.028; UniProt P61081: 1.01 ± 0.035; CTBS (UniProt Q01459): 1 ± 0.028.
With TFAP4 (UniProt Q01664), the NP40-soluble protein abundance amounted to 0.987 ± 0.046.
Still for that read-out and setting: the same measure for UniProt Q01968 and related entries: 1 ± 0.03; for “UniProt Q02447-3|H0Y6K5 and related entries”: 1.01 ± 0.098.
Same read-out and setting: the same measure for UniProt Q04760 and related entries: 1.02 ± 0.043; for ITGA1 (UniProt P56199): 1.01 ± 0.021; for UniProt P62750: 1.01 ± 0.012.
On to PPP1CA (UniProt P62136), for which the NP40-soluble protein abundance worked out at 1.03 ± 0.015.
The same measure, in the same setting: the same measure for UniProt P62875: 1.04 ± 0.039; for UniProt P60228: 1.04 ± 0.035.
Still for that read-out and setting: the same measure for UniProt P98155 and related entries: 0.998 ± 0.02; for NOTCH2 (UniProt Q04721): 0.982 ± 0.025; for RPS27A (UniProt P62979): 1.01 ± 0.025.
